Data reported in patent publication US20250376511A1.
Results are given in words; binding and its absence hold for the method and conditions named. Some binding calls cover weakened binding; strength is not graded here.

Molecular target: His-tagged recombinant human TfR (produced in-house) (human) (UniProt P02786)
Experiment: worded summary among the three IgG1-NNAS bispecifics

binding: binds
B1: aC1s_088 × 531v23 IgG1-NNAS/dK (bispecific antibody, V domains shown)
VH 1: QVQLVQSGAEVKKPGASVKLSCTASGFNIKDDYIHWVKEAPGQGLEWIGRIDPADGHTKYAPKFQVKVTITADTSTSTAYLELSSLRSEDTAVYYCARYGYGREVFDYWGQGTTVTVSS
VL 1: DIVLTQSPDSLAVSLGERATISCKASQSVDYDGDSYMNWYQKKPGQPPKILIYDASNLESGIPARFSGSGSGTDFTLTISSLEPEDFAIYYCQQSNEDPWTFGGGTKVEIK
VH 2: QVQLVQSGAEVKKPGASVKVSCKASGYTFTRYYLNWVRKAPGQGLEWIGMIDPSVSETHYAQKFQGRATLTVDKSTSTAYMELSSLRSEDTAVYYCSQIRLPYYYAMDSWGQGTTVTVSS
VL 2: DIQMTQSPSSLSASVGDRVTITCRASQDISSFLNWYQEKPGKAPKLLIYYTSRLHSGVPSRFSGSGSGTDYTLTISSLQPEDFATYYCQQGNTLPRTFGGGTKVEIK
